In US8377934B2, “Use of stilbene derivatives for treatment and prevention of aquatic mold infections” (State of Israel, Ministry of Agriculture & Rural …, priority 2006, dated 2013):
At least one compound was matched to its structure with a doubt left. Some of these results come from one statement about several compounds together.

Test system: S. parasitica
Test: In vitro susceptibility of S. parasitica in Table 4
Format: cell-based, Saprolegnia parasitica
Description: The in vitro susceptibility of Saprolegnia parasitica T-1 and S. parasitica CBS 540.67 to various compounds was determined by the agar-dilution and broth macrodilution methods.
Two methods were used, each suitable for a different phase of the asexual life cycle of Saprolegnia spp.: i) the broth macrodilution method, for determination of susceptibility of zoospores and cysts; and ii) the agar-dilution method for determination of susceptibility of filamentous hyphae. Each compound was tested three times in each method. Malachite Green was used as positive control.
This method is a modification of the method used for molds according to EUCAST 7.1 (European Committee on Antibiotic Susceptibility Testing) and CLSI/NCCLS M27-A2 (Clinical Laboratory Standards Institute/National Committee for Clinical Laboratory Standards). For inoculum preparation, S. parasitica isolates were cultured on GP-PS for 7 days with sterile clover seeds at 18° C. […] Cysts and zoospores free from hyphae were collected, and an inoculum of ˜10^3 CFU/ml as measured by hemacytometer counting, was prepared in RPMI. […]
Twofold serial dilutions of the resulting stock solutions were set in RPMI-1640 medium in a volume of 0.1 ml. […] The growth in each tube was then evaluated visually. […]

Structure (SMILES)	Activity in vitro (MIC), grade (Table 4 summary)	MIC (method and isolate not separated)
O=[N+]([O-])C(Br)(CO)CO [Pyceze ®]	Moderate	
O=C([O-])[O-].O=C([O-])[O-].OO.OO.OO.[Na+].[Na+].[Na+].[Na+] [Sodium percarbonate]		≤ 10 µg/mL
